In article PMC8563757 one finds binding data, which are given here for 4 molecules.

Results are given in words; binding and its absence hold for the method and conditions named. Binding seen in cells or lysates may run through a third protein. Some binding calls cover weakened binding; strength is not graded here.

Assay [1] deals with T1, Centriolar coiled-coil protein 110 (CP110), endogenous, MEF cells (mouse (endogenous in MEF)) (UniProt Q7TSH4).
T1 sequence: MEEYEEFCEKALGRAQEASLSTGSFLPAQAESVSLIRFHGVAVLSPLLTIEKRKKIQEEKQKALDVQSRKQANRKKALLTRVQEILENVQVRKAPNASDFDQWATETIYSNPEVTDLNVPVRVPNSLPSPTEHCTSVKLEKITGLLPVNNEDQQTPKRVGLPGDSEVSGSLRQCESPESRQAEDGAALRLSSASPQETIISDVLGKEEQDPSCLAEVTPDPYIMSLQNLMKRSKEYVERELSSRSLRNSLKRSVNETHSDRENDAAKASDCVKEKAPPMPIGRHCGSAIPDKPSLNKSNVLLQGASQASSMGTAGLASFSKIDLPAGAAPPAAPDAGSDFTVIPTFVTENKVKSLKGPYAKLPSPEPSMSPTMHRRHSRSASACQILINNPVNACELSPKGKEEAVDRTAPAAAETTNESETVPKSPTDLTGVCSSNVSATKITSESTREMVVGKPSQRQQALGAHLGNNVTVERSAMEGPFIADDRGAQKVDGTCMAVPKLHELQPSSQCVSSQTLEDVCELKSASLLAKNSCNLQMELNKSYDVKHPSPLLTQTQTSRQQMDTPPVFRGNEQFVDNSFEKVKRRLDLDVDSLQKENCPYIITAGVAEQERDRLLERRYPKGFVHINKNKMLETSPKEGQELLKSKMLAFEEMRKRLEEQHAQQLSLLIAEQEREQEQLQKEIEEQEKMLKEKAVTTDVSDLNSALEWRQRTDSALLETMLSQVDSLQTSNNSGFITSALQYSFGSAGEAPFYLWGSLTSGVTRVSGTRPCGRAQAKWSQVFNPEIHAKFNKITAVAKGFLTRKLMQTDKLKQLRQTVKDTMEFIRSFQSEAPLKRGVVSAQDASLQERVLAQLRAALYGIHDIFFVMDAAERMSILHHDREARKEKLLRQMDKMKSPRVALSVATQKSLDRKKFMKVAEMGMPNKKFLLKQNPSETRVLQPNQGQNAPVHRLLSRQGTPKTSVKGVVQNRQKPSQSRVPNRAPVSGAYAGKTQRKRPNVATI
The assay is described as follows: co-IP; endogenous proteins, wild-type MEF cell lysates, antibodies at 4 °C overnight, Protein A/G Sepharose beads, western blotting. Background: A western blot detects proteins with antibodies after separation by electrophoresis.

Assay [2] concerns the target T2, NudCL2 (form in the experiment not told; Fig. S6c, d and Fig. S8) (UniProt Q9CQ48).
T2 sequence: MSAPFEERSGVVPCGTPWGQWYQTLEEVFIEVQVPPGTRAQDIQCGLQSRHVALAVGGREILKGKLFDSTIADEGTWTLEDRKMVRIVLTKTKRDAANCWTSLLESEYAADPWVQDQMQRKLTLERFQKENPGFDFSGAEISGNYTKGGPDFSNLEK
The assay is described as follows: co-IP; co-IP of NudCL2 with CEP83, CEP89 or TTBK2; cells and antibodies in Fig. S8, not shown.

B1: NudC-like protein 2 (NudCL2), endogenous, MEF cells (protein, UniProt Q9CQ48 1-157)
chain: MSAPFEERSGVVPCGTPWGQWYQTLEEVFIEVQVPPGTRAQDIQCGLQSRHVALAVGGREILKGKLFDSTIADEGTWTLEDRKMVRIVLTKTKRDAANCWTSLLESEYAADPWVQDQMQRKLTLERFQKENPGFDFSGAEISGNYTKGGPDFSNLEK
On to B1, for which the binding entry in assay [1] is “binds”.

B2: Tau tubulin kinase 2 (TTBK2) (protein, UniProt Q3UVR3 1-1243)
chain: MSGGGEQPDILSVGILVKERWKVLRKIGGGGFGEIYDALDMLTRENVALKVESAQQPKQVLKMEVAVLKKLQGKDHVCRFIGCGRNDRFNYVVMQLQGRNLADLRRSQSRGTFTISTTLRLGKQILESIESIHSVGFLHRDIKPSNFAMGRFPSTCRKCFMLDFGLARQFTNSCGDVRPPRAVAGFRGTVRYASINAHRNREMGRHDDLWSLFYMLVEFVVGQLPWRKIKDKEQVGSIKERYDHRLMLKHLPPEFSTFLDHISSLDYFTKPDYQLLTSVFDNSIKTFGVIESDPFDWEKSGTDGSLTTTTTSATPQLHTRLTPAAIGIANATPIPGDLLRENTDEVFPDEQLSDGENGIPVGVSPDKLPGSLGHPRPQEKDVWEEMDINKNKIKLGICKAATEEENSHGQVNGILNAPSLGSPIRVRSEITQPDRDVPLVRKLRSIHSFELEKRLTLEPKPDTDKFLETCMEKMQKDSSAGKEPVPPALPHKPCVPVVTHTDHIWHYDDEYLPDASKPASANTPEQADGGGSNGFIAVNLSSCKQEVDSKEWVIVDKEQDLQDFRTNEVLGHKTTGSPSDEEPEVLQVLEGSPQDEKIQVGPWTDNHHLKKESSGVVLALSAECPATAASELYTDRLDLQAGAASQFITVTPTSPMEAQAEGPLTAITIPRPSVASTQSTSGSFHYGPQPEKKDLQPLEPTVELYSPRENFSGLVVTEGELASGGSRVDLGLQIDHTGHDMLPNMRDGDTSQDLGPKDPPDHNRLAVKEFEHLPGETEERSLLLGSENEDERLSKGQHCIEVSSPGELVTAERAQLAATEPLHVSETQNCSVLPNQDKTHEIMKLLAVGTSEISPQAIDPHAEGQIGQMAAMQKNKLFKDDGIQSESLPRQQGDLSAFLHQEGKREKVVPRNGELYHCVSENEHGPPTRKDMLRSSFVTRHSRIPVLAQEIDSTFESSSAISAKEKLLQKKAYQPEIVKLLVEKRQFKSFLGDLSSASDKLIEEKLAAVPVPFSEEEVFAPFSRLAADSHLSRSVEDSFLSPIISQARKSKIPRPVSWVSTDQINGSASPQFLPRPPPGKPPVRPGVEARLRRYKVLGSSNSDSDLFSRLAQILQNGSQKSRSTTQCKSPGSPHNPKTPPKSPVVPRRSPSASPRSSSLPRTSSSSPSRAGRPHHDQRSSSPHLGRSKSPPSHSGSSSSRRSCQQEHCKPSKNGPKGSGSLHHHSTSSKTPPGKSKPASKLSR
Consider B2, for which the binding result in assay [2] was “binds”.

B3: centrosomal protein 83 (CEP83) (protein, UniProt Q9D5R3 1-692)
chain: MDTFPSLFPPGGDSRLNPEPEFQNMLIDERVRCEHHKHNYQALKIEHKRLQEEYVKSQNELKRVLIEKQASQEKFQLLLEDLRGELVEKARDIEKMKLQVLTPQKLELVKAQLQQELEAPMRERFRTLDEEVERYRAEYNKLRYEYTFLKSEFEHQKEEFTRVSEEEKMKYKSEVARLEKDKEELHNQLLSVDPTRDSKRMEQLVREKTHLLQKLKSLEAEVAELRAEKENSGAQVENVQRIQVRQLAEMQATLRSLEAEKQSAKLQAERLEKELQSSNEQNTCLISKLHRADREISTLASEVKELKHANKLEITDIKLEAARAKSELERERNKIQSELDGLQSDNEILKSTVEHHKALLVEKDRELIRKVQAAKEEGYQKLMVLQDEKLELENRLSDLEKMKVERDVWRQSEKEQCEEKLRASQMAEEAARRELQSTRLKLQQQIVNTEKAEKEKLENSELKQQISHLQIQVTSLTQSENDLLNSNHMLKDMVERLKQECRNLRSQAEKAQLDVEKTLEEKQIQWLEEKHKLHERITDREEKYNQAKEKLQRAATAQKKRKSLHENKLKRLQEKVEVLEAKKEELETENQVLNRQNVPFEEYTRLQKRLKDIQRRHNEFRSLILVPNMPPTASISPANFQSAVTVPGAELSFPPHLQEEQHQRELSLLRKRLEELETTQRKQLEELGSPGE
In the case of B3, in assay [2], the binding result is “binds”.

B4: centrosomal protein 89 (CEP89) (protein, UniProt Q9CZX2 1-791)
chain: MLLSFRRNRRSQFNHIIHGFLPAASIAPKPAVPRTPPPRSPNPSPERPRSALAAAILATTLTGQTVAIPQPRQRSRSESDASDIEKDSFIKPYATTSELRLRQSWQNEPRRTSLPSFEMLGYGEDEDAETQVSTSCRESESTWKDVGDGRDATYTVPHRDQVLPSQKLVRKDDAPQPDWLSDSSSSSSSSTPQHTQQKDVKHSVLNLEGEKVRLHEKPPPSPDVAGRIHQRYTEITKEKFAELKEETVHLYSANQALSCELSALRQAMKDLQLKLKLVEKDNRKLKETEKASCQEGVTPELLCLRKQSQDLVDENEGLKMIVHRLNVELSRYQTKFRPLSEEESSHIQGLPSKGPTPPWLVDIKYLSPLLLAYEDRMKEKDKLSTALEEEMKTFRLRVQEVVKENEALHQELTKRSPVTVEEWRQLQTQAELVLDENKLLIEQLEIQQAKARDTHQAHLQDVSKLTKQLVLLEAKTQGQEKQLVESTEQLESLQAKCTELKAQLDSKIAVDVHTSIVNELKSQLQKEEEKDSAEMEELMAKLTALQVQKKSLLLEKSSWATRNRALEAELERTRKANRRYQKRIDVLRKQVEKAMGKEMSAHQYLANLVGLAETVTKERDSLKYLAQCLESEKHGVLNKILKGNIRLGKLEERVKGYKKQAALKLGDIHHRLKEQQEDFAGKAAQYQKEVKHLHRMLQEKQEVLDEALQQKRNMEGELEMVLESTAKENRRMRSLLQATLERRSTQHVTAPPDTCLRRSSQGDLLIGHDFSYGDVQLLATTNRQSLGESMA
On to B4, for which the binding entry in assay [2] is reported as “binds”.
